Laboratory results: PubChem BioAssay AID1487 (National Center for Advancing Translational Sciences (NCATS), 2009)
The other results are listed elsewhere or left out. These are further read-outs of the screen, such as a control signal, another cell line or another target. No call is given for them. Compounds called inactive in the main read-out are mostly missing here. The note in brackets gives the kind of curve behind each potency; many fits are weak.

Test: qHTS Assay for Modulators of Lamin A Splicing
Details: HeLa LMNA splicing GFP/RFP minigene ratio, 48 h
Method in brief: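 Read-out is the ratio of GFP to DsRed2 object intensity, acquired by 488 nm laser-scanning cytometry on HeLa lamin A-EGFP minigene reporter cells. Compound incubation 48 hrs at 37 °C in Opti-MEM with 2% FBS; DMSO 0.5% final.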

[1] = measured here: RFP viability control channel
[2] = measured here: GFP splicing reporter channel

For `CNC(=S)N1CCN(c2c(F)cc3c(=O)c(C(=O)O)cn(C4CC4)c3c2OC)CC1C` (stereo not drawn), which AC50 [1] is on record?
Its AC50 is 4.47 µM [rising, partial curve, poor fit].

For `CC(/C=C1\SC(=S)N(CC(=O)O)C1=O)=C\c1ccccc1`, which AC50 [1] is on record?
Its AC50 is 31.6 µM [rising, single point].

Which AC50 [1] does the source give for `O=C(Nc1ccc(C(F)(F)F)cc1)C1CCCN1S(=O)(=O)c1cccc2cccnc12` (stereo not drawn) here?
The AC50 was 8.91 µM [rising, partial curve, poor fit].

With `O=C(NC(=O)c1ccccc1)OCCN1C(=O)c2ccccc2C1=O` as the molecule, how does the AC50 [2] read?
The AC50 was 0.0708 µM [rising, full curve, poor fit].

Which AC50 [1] does the source give for `O=C(c1ccc(S(=O)(=O)c2ccccc2)cc1)N1CCc2ccccc2C1` here?
Its AC50 is 14.1 µM [rising, partial curve].

Which results are given for `COc1ccc(NC(=O)c2oc3c(c2C)-c2nn(Cc4c(F)cccc4Cl)cc2CC3)c(OC)c1`?
AC50 [2]: 22.4 µM [rising, partial curve, poor fit]; AC50 [1]: 12.6 µM [rising, partial curve]

For `CCOCCCNCc1ccc(OCc2ccccc2Cl)cc1`, which AC50 [1] is on record?
The AC50 was 14.1 µM [rising, single point].

For `CCCC(=O)O[C@H]1C[C@@H](C)N(C(=O)c2ccccc2)c2ccc(C)cc21`, which AC50 [2] is on record?
Its AC50 is 31.6 µM [rising, single point].

What about the AC50 [1] of the same molecule?
The AC50 was 35.5 µM [rising, single point].

Which AC50 [2] does the source give for `Cc1ccc(NC(=O)C(=O)NCC(c2cccnc2)N2CCN(C)CC2)cc1C` (stereo not drawn) here?
Its AC50 is 8.91 µM [falling, partial curve].

And the AC50 [1]?
Its AC50 is 1.78 µM [falling, full curve].

Which AC50 [2] does the source give for `COc1ccc(NS(=O)(=O)c2ccc3nc(COc4ccc5ccccc5c4)[nH]c3c2)cc1` here?
The AC50 was 35.5 µM [falling, single point].

Which results are given for `O=C(CSc1nc(=O)[nH]c2c1CCCC2)Nc1cc(C(F)(F)F)ccc1Cl`?
AC50 [2]: 14.1 µM [falling, partial curve, poor fit]; AC50 [1]: 35.5 µM [falling, partial curve, poor fit]

With `Cc1cc(C)n(-c2nnc(C)n2/N=C/c2cc(Br)ccc2OCc2ccccc2)n1` as the molecule, how does the AC50 [2] read?
The AC50 was 10 µM [rising, single point].

And the AC50 [1]?
Its AC50 is 11.2 µM [rising, single point].

Which AC50 [1] does the source give for `CCc1nc(N)c(C#N)c(-c2ccc(O)c(OC)c2)c1C` here?
Its AC50 is 35.5 µM [rising, single point].

With `O=C1CCSC2(C(=O)N(Cc3ccc(F)cc3)c3ccccc32)N1c1ccccc1` (stereo not drawn) as the molecule, how does the AC50 [1] read?
Its AC50 is 31.6 µM [falling, single point].

With `O=C(CSc1nnc(-c2n[nH]c3ccccc23)n1-c1ccccc1)Nc1ccccc1Cl` as the molecule, how does the AC50 [2] read?
The AC50 was 0.178 µM [rising, full curve, poor fit].

What about the AC50 [1] of the same molecule?
Its AC50 is 14.1 µM [rising, partial curve].

With `O=C(Nc1ccc(O)cc1)c1cc(S(=O)(=O)N2CCCC2)ccc1Cl` as the molecule, how does the AC50 [1] read?
Its AC50 is 12.6 µM [rising, partial curve].

For `CC(C)(C)c1ccc(C(=O)NCC(=O)OCC(=O)c2ccc3c(c2)-c2ccccc2C3)cc1`, which AC50 [2] is on record?
The AC50 was 11.2 µM [falling, partial curve, poor fit].

Which AC50 [1] does the source give for `COc1cccc(/C=N/Nc2nc(Nc3ccc([N+](=O)[O-])cc3)nc(N3CCCC3)n2)c1O` here?
The AC50 was 6.31 µM [falling, partial curve].

Which results are given for `O=C(Nc1nnc(C2CC2)s1)c1cc(-c2ccccc2)nn1-c1ccccc1`?
AC50 [2]: 10 µM [rising, partial curve]; AC50 [1]: 15.8 µM [rising, single point]

For `CCC(NC(=O)Nc1nnc(C(F)(F)F)s1)(C(F)(F)F)C(F)(F)F`, which AC50 [2] is on record?
The AC50 was 7.08 µM [falling, partial curve].

What about the AC50 [1] of the same molecule?
Its AC50 is 7.94 µM [falling, partial curve].

For `Cc1c(C)c2c(c(C)c1O)CCC(C)(CN1CCN(c3cc(N4CCCC4)nc(N4CCCC4)n3)CC1)O2` (stereo not drawn), which AC50 [2] is on record?
The AC50 was 12.6 µM [falling, partial curve].

And the AC50 [1]?
The AC50 was 12.6 µM [falling, partial curve].

With `O=C1c2ccccc2C(=O)c2c1ccc(O)c2O` as the molecule, how does the AC50 [2] read?
Its AC50 is 1.26 µM [falling, single point].

Which AC50 [1] does the source give for `O=C(c1ccccc1)N1CCC(c2nc(-c3ccc(S(=O)(=O)N4CCOCC4)cc3)no2)CC1` here?
Its AC50 is 11.2 µM [rising, partial curve].

For `O=C1CC(=C(c2ccccc2)c2ccccc2)C(=O)N1CCCCN1CCN(c2ccccc2)CC1`, which AC50 [1] is on record?
The AC50 was 12.6 µM [rising, single point].

Which AC50 [2] does the source give for `Cc1cccc(CC(=O)NC2CC(=O)N(c3cccc(F)c3)C2)c1` (stereo not drawn) here?
Its AC50 is 2.51 µM [falling, partial curve, poor fit].

What about the AC50 [1] of the same molecule?
The AC50 was 3.16 µM [falling, partial curve, poor fit].

For `C=CCNc1nc(-c2ccccn2)nnc1-c1ccccc1`, which AC50 [1] is on record?
Its AC50 is 4.47 µM [rising, full curve].

Which AC50 [2] does the source give for `Cc1occc1-c1nnc(SCC(=O)Nc2ccccc2-c2ccccc2)n1C` here?
The AC50 was 17.8 µM [rising, partial curve, poor fit].

What about the AC50 [1] of the same molecule?
Its AC50 is 15.8 µM [rising, partial curve, poor fit].

With `CN(C(=O)CSc1nc2ncccc2o1)c1ccc(F)cc1` as the molecule, how does the AC50 [1] read?
Its AC50 is 20 µM [rising, single point].

What does the source list for `Nc1ccccc1Nc1cc(-c2ccccc2)nn1-c1cccc(Cl)c1`?
AC50 [2]: 35.5 µM [rising, single point]; AC50 [1]: 35.5 µM [rising, single point]

For `Cc1noc(C)c1CSc1nnnn1-c1ccc(Cl)cc1`, which AC50 [1] is on record?
Its AC50 is 20 µM [rising, partial curve].

Which results are given for `Cc1ccccc1C(=O)Oc1ccc(Sc2ccc(O)cc2)cc1`?
AC50 [2]: 11.2 µM [falling, single point]; AC50 [1]: 22.4 µM [falling, partial curve, poor fit]

Which AC50 [1] does the source give for `N#Cc1c(NC(=O)/C=C/c2ccco2)sc2c1CCCC2` here?
The AC50 was 0.355 µM [rising, full curve, poor fit].

With `CCOC(=O)c1sc2nc3c(SCC(=O)O)cc(C(=O)c4ccccc4O)cn3c(=O)c2c1C` as the molecule, how does the AC50 [2] read?
The AC50 was 0.2 µM [rising, full curve, poor fit].

With `COC(=O)c1ccc(CSc2nnc3c(n2)[nH]c2ccccc23)cc1` as the molecule, how does the AC50 [1] read?
Its AC50 is 3.16 µM [rising, partial curve, poor fit].

For `Cc1ccc(Sc2ncnc3onc(C)c23)c(C)c1`, which AC50 [1] is on record?
The AC50 was 7.94 µM [rising, partial curve, poor fit].

Which AC50 [1] does the source give for `O=C(NC(=S)NCCc1ccccc1)C1CCCCC1` here?
Its AC50 is 8.91 µM [rising, partial curve].

Which AC50 [1] does the source give for `COc1cc(/C=N/Nc2nc3ccccc3[nH]2)cc(OC)c1O` here?
The AC50 was 2.51 µM [rising, partial curve, poor fit].

For `O=C(Nc1ccc(-c2nc3ccccc3o2)cc1)c1cc(-n2cnnc2)ccc1Cl`, which AC50 [1] is on record?
The AC50 was 7.08 µM [rising, full curve, poor fit].

With `Cc1cc(C(=O)N2CCc3ccccc32)n(-c2ccccc2)n1` as the molecule, how does the AC50 [1] read?
The AC50 was 20 µM [rising, partial curve, poor fit].

Which AC50 [2] does the source give for `Cc1ccc(C)c(Cn2c(=O)cc(C(F)(F)F)c3c(C)nn(C)c32)c1` here?
Its AC50 is 3.98 µM [falling, full curve].

For `COc1ccc(C(=O)Nc2ccc(Cl)c(S(=O)(=O)Nc3ccccc3OC)c2)cc1`, which AC50 [1] is on record?
The AC50 was 2.82 µM [rising, single point].

With `O=c1c2ccc([N+](=O)[O-])cc2ncn1CCOc1cccc(Br)c1` as the molecule, how does the AC50 [2] read?
Its AC50 is 6.31 µM [falling, single point].

And the AC50 [1]?
The AC50 was 4.47 µM [falling, partial curve].

Which results are given for `CCCS(=O)(=O)c1c(S(=O)(=O)CCC)c2cc(CC)ccn2c1C(=O)OC`?
AC50 [2]: 22.4 µM [rising, single point]; AC50 [1]: 17.8 µM [rising, single point]

For `O=C(CC1C(=O)NCCN1Cc1ccc(F)cc1)NCCCn1cccn1` (stereo not drawn), which AC50 [1] is on record?
Its AC50 is 0.708 µM [falling, full curve, poor fit].

Which results are given for `CCOC(=O)c1c(C)[nH]c(C)c1C(=O)CSc1nc2ccccc2c(=O)n1-c1ccc(Cl)cc1`?
AC50 [2]: 14.1 µM [rising, partial curve]; AC50 [1]: 35.5 µM [rising, single point]

With `OC(c1cccc(OCc2ccccc2)c1)c1nnc(-c2ccccc2)o1` (stereo not drawn) as the molecule, how does the AC50 [1] read?
The AC50 was 8.91 µM [rising, partial curve].

For `CCN=C(Nc1ccc2c(c1)OCO2)SC1CC(=O)N(c2ccc(OC)cc2)C1=O` (stereo not drawn), which AC50 [1] is on record?
Its AC50 is 1.41 µM [rising, partial curve].

Which AC50 [2] does the source give for `COc1ccc(-c2ccc(C#N)c(OC(=O)c3c(Cl)cccc3Cl)n2)cc1` here?
Its AC50 is 11.2 µM [rising, partial curve].

And the AC50 [1]?
The AC50 was 10 µM [rising, partial curve, poor fit].

For `COc1cc2c(cc1OC)-c1cc(Nc3ccc4c(c3)OCCO4)nc(=O)n1CC2`, which AC50 [1] is on record?
The AC50 was 11.2 µM [rising, single point].

With `COc1cc(CC(=O)Nc2ccccc2N2CCOCC2)cc(OC)c1OC` as the molecule, how does the AC50 [1] read?
Its AC50 is 31.6 µM [rising, partial curve, poor fit].

For `CCOC(=O)c1c(NC(=O)COc2ncnc3ccccc23)sc(C(C)=O)c1C`, which AC50 [1] is on record?
Its AC50 is 12.6 µM [rising, single point].

Which AC50 [2] does the source give for `COC(=O)c1ccc(NC(=S)NCCCN2CCCC2=O)cc1` here?
Its AC50 is 0.398 µM [rising, partial curve].

With `COc1ccccc1C(=O)Nc1nnc(S(=O)(=O)N2CCN(c3ccc(F)cc3)CC2)s1` as the molecule, how does the AC50 [1] read?
Its AC50 is 0.00562 µM [falling, full curve, poor fit].

With `CC(C)(C)n1cnc2cc(NS(=O)(=O)c3ccc(Br)cc3)ccc21` as the molecule, how does the AC50 [2] read?
Its AC50 is 35.5 µM [rising, single point].

What about the AC50 [1] of the same molecule?
Its AC50 is 35.5 µM [rising, single point].

With `COc1ccccc1CNC(=O)C(Cc1c[nH]c2ccccc12)NC(=O)OCc1ccccc1` (stereo not drawn) as the molecule, how does the AC50 [1] read?
The AC50 was 11.2 µM [rising, partial curve].
